According to paper PMC9918485:
No constants are given. Whether binding was seen depends on the method and setting. In cells and extracts the contact can be indirect. Some entries that bind do so weakly or less than the wild type.

Amino acid sequences for entries named in this document (tags omitted).
UniProt Q62406: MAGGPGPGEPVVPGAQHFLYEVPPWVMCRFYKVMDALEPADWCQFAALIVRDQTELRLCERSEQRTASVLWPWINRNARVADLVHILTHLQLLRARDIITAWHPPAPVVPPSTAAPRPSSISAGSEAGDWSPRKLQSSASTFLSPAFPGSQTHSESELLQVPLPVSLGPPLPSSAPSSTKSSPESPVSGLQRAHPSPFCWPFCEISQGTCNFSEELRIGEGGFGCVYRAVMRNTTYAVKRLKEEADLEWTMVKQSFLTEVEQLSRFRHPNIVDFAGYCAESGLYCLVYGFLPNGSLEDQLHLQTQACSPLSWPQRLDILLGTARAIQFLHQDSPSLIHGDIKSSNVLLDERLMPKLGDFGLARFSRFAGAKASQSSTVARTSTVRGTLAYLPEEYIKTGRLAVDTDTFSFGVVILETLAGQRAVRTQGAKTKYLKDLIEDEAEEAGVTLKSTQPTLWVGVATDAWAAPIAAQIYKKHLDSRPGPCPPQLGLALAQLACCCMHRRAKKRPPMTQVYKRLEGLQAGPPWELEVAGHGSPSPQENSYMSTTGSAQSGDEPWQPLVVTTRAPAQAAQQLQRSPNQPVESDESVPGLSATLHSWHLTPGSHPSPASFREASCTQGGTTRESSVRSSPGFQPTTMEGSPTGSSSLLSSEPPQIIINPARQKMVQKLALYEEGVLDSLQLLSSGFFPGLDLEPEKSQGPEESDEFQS

Target: interleukin-1 receptor-associated kinase 1 (IRAK1) (mouse (endogenous in C57BL/6 spinal cord)) (UniProt Q62406)
Experiment: co-IP; lumbosacral spinal cord lysates (RIPA buffer) of EAE mice at peak disease (WT, IRAK-M-/-, AAV-CTL); anti-IRAK1 overnight at 4 °C, protein A/G beads 3 h, washed three times with RIPA buffer; western blot for IRAK1 and TRAF6

B1: TNF receptor-associated factor 6 (TRAF6) (protein, UniProt P70196 1-530)
chain: MSLLNCENSCGSSQSSSDCCAAMAASCSAAVKDDSVSGSASTGNLSSSFMEEIQGYDVEFDPPLESKYECPICLMALREAVQTPCGHRFCKACIIKSIRDAGHKCPVDNEILLENQLFPDNFAKREILSLTVKCPNKGCLQKMELRHLEDHQVHCEFALVNCPQCQRPFQKCQVNTHIIEDCPRRQVSCVNCAVSMAYEEKEIHDQSCPLANIICEYCGTILIREQMPNHYDLDCPTAPIPCTFSVFGCHEKMQRNHLARHLQENTQLHMRLLAQAVHNVNLALRPCDAASPSRGCRPEDPNYEETIKQLESRLVRQDHQIRELTAKMETQSMYVGELKRTIRTLEDKVAEMEAQQCNGIYIWKIGNFGMHLKSQEEERPVVIHSPGFYTGRPGYKLCMRLHLQLPTAQRCANYISLFVHTMQGEYDSHLPWPFQGTIRLTILDQSEALIRQNHEEVMDAKPELLAFQRPTIPRNPKGFGYVTFMHLEALRQGTFIKDDTLLVRCEVSTRFDMGGLRKEGFQPRSTDAGV
With B1 the binding was “binds”.
